This is one part of the list.

Amino acid sequences for entries named in this document (tags omitted).
UniProt Q0JBA9, entry or part of it: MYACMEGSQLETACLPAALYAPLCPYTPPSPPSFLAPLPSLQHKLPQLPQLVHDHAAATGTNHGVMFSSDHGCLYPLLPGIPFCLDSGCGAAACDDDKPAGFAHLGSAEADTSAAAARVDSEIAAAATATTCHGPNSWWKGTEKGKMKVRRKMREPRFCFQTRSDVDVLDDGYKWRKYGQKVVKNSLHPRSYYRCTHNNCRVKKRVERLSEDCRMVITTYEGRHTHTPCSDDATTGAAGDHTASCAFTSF

The assay deals with OsWRKY34 (Oryza sativa, UniProt Q0JBA9 1-250). Briefly: protein-binding microarray (RPBM); PBS, 2% BSA, 51.3 ng/ul salmon testes DNA, 50 uM zinc acetate, 200 nM TF, 25 C, 1 h; high values mean tight binding. To be noted: protein: recombinant; tags: N-terminal polyhistidine and DsRed monomer fusion (pET32a); label: CyDye5-dUTP incorporated in the synthesized complementary strand; 3' TTTTT single-stranded linker to array surface; dsDNA, one strand shown. The essentials: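 The binding signal for each feature is its fluorescence intensity in arbitrary units. An Axon 4000B scanner was used to read a custom Agilent array that had been made double-stranded with Cy5-dUTP primer extension, blocked with 2% BSA, incubated at 25 °C for 1 h with 200 nM protein in PBS, 2% BSA, salmon testes DNA and 50 µM zinc acetate, and washed. The protein was an N-terminal polyhistidine–DsRed transcription factor fusion from E. coli BL21-CodonPlus, purified on Ni–NTA.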
In the case of “TGTTCTCCATTTTTGCAATTTATATCATGATATTTTTTTTCGGAGTCACCTAGTGCAG”, the binding signal is 9960 fluorescence intensity (a.u.).

Turning to “TCCATCCCGGCCCGGCACTGCACACACGCGCGTAGTACCACGGAGTCACCTAGTGCAG”, the binding signal is 8130 fluorescence intensity (a.u.). For “GGTGGTGGGCATTCCTTTGCATCTCTTGTAGCTAATAAGCCGGAGTCACCTAGTGCAG”, the binding signal was 11100 fluorescence intensity (a.u.). With “ATCGACCCTTGCGCGGACTCCGCTCTCTTGTTGACCACCTCGGAGTCACCTAGTGCAG”, the binding signal is 14600 fluorescence intensity (a.u.). Take “CGTCAGTGAGACAGCCGCCCACGCCTTAAAGCCCAAACCCCGGAGTCACCTAGTGCAG”: the binding signal is 10300 fluorescence intensity (a.u.). As to “TCCCTGCATGTATTACAGTTAATTTGTGTCAGTTCTTGCTCGGAGTCACCTAGTGCAG”, the binding signal is 11400 fluorescence intensity (a.u.). In the case of “ACCTCTGTTCTCATTTCCTACAGATTCCACAAGTGCCTGCCGGAGTCACCTAGTGCAG”, the binding signal was 9390 fluorescence intensity (a.u.). For “GCTCCGGGGCAACCGTCTTCCCGGTCCACCACATCCTCGGCGGAGTCACCTAGTGCAG”, the binding signal was 8200 fluorescence intensity (a.u.). For the sequence “TTTTTTTTTCTTTTTTCTTTTTTCTATGTGTATTTATAATCGGAGTCACCTAGTGCAG”, the binding signal was 9350 fluorescence intensity (a.u.). As to “CTTTCTTTATTCTTCTTTTTTTTTTCCCACGCTGTCTAACCGGAGTCACCTAGTGCAG”, the binding signal was 11300 fluorescence intensity (a.u.).

For “CTCTAATGGTTTTTTCATTTTACACGCTCGTACTTAATCTCGGAGTCACCTAGTGCAG”, the binding signal is 8500 fluorescence intensity (a.u.). As for “ACCCTGCGGATTAACAGAGTAAACTGCAACAAACCACGCGCGGAGTCACCTAGTGCAG”, the binding signal was 8090 fluorescence intensity (a.u.). With “TTTTTCCTGCCCGGTTTTTTTGCCCGATTCTTTTTTTTGACGGAGTCACCTAGTGCAG”, the binding signal was 15200 fluorescence intensity (a.u.). Consider “ACCTAACATAGTTTGACTCATCTGCTGGTCAAACCTATCGCGGAGTCACCTAGTGCAG”, for which the binding signal was 10000 fluorescence intensity (a.u.). For “ATTATTATTGTTGCTAATTAATATGTTGTTTTACAGCAATCGGAGTCACCTAGTGCAG”, the binding signal is 8960 fluorescence intensity (a.u.).

Regarding “GGTATTTTAGGCTTTTTTTTAACATCGTTAAATGTCCTTACGGAGTCACCTAGTGCAG”, the binding signal was 8310 fluorescence intensity (a.u.). On to “ACTATAGCCCATTCCGAAGTCTATCGCTATCCACTTCGTCCGGAGTCACCTAGTGCAG”, for which the binding signal was 8540 fluorescence intensity (a.u.). Consider “GTCCCTGTCCCCAGCCGCGCCGGCACCTCATCGCCGACCCCGGAGTCACCTAGTGCAG”, for which the binding signal is 9250 fluorescence intensity (a.u.). As to “GCGTGCACTCCCGTCCTGTTGTCGTGCCGTCTCCAGTCCCCGGAGTCACCTAGTGCAG”, the binding signal is 10900 fluorescence intensity (a.u.). “TTGGACTCTTTCTCTCTCATTCCACTTCTTGCTCGCCGCCCGGAGTCACCTAGTGCAG”: the binding signal was 11800 fluorescence intensity (a.u.). The figure for “CTCTTATTTATGTAATTAGTTTTATAAGTTGCCTATGTTTCGGAGTCACCTAGTGCAG” is 8450 fluorescence intensity (a.u.); for “GGTCGCTTGCTTCTTTTGGTGGGGTGCCGGGATTCCCCTCCGGAGTCACCTAGTGCAG” it is 11900 fluorescence intensity (a.u.).

For the sequence “ATTCAATTATGGTTTGGTTGGTTAGCACTGGAATCTTTACCGGAGTCACCTAGTGCAG”, the binding signal is 8330 fluorescence intensity (a.u.). As for “ATGGTGTTGTTTCTGAATTTCTGGTGTGAATAAAGCTCTTCGGAGTCACCTAGTGCAG”, the binding signal is 10600 fluorescence intensity (a.u.). For “ACAAATGTAGTATTACTCTCTCCGTCCCATAATATAAATACGGAGTCACCTAGTGCAG”, the binding signal was 9230 fluorescence intensity (a.u.).

In the case of “TCTCTCTCTCTCTCTCTCTCTTCTCTCTCCAGTCCAATCTCGGAGTCACCTAGTGCAG”, the binding signal was 8140 fluorescence intensity (a.u.). Regarding “GCACGAACGACGGCCACCGCCATGCCCACTGTTCATCTCCCGGAGTCACCTAGTGCAG”, the binding signal is 8730 fluorescence intensity (a.u.).

With “GCCCGGCAGCCACACAGTCCGCCCGCCACCCTTAAAATCCCGGAGTCACCTAGTGCAG”, the binding signal was 8300 fluorescence intensity (a.u.). Consider “CTCTTGCTCCTTGAAGGTGTACACTAGTTCTGCTGCTCTCCGGAGTCACCTAGTGCAG”, for which the binding signal is 8620 fluorescence intensity (a.u.).

Consider “CAGCTTTGGTCAAGAACTATGCCAATTGTAACAGCATTTCCGGAGTCACCTAGTGCAG”, for which the binding signal is 10200 fluorescence intensity (a.u.). Turning to “AAGGGTCATCGGGTGGTCCCCACATGTCATACAGATAATACGGAGTCACCTAGTGCAG”, the binding signal is 8600 fluorescence intensity (a.u.).

Turning to “CAACGGCGGTGGCGGCGGCGGCGGCGGCGGGGCGGCGTCGCGGAGTCACCTAGTGCAG”, the binding signal was 8370 fluorescence intensity (a.u.). As for “GTCATTTTGGACTCACCTTTGTCACTTGGCGCCTCTTTCACGGAGTCACCTAGTGCAG”, the binding signal was 10700 fluorescence intensity (a.u.). As for “CTCACCGAGACTAGCCGTTGCCTCGCGGCCATCGCCTTTCCGGAGTCACCTAGTGCAG”, the figure is 8630 fluorescence intensity (a.u.).

Consider “CGTGTTCTTGCCTGCGTATATACGGTGTACGTACACACGTCGGAGTCACCTAGTGCAG”, for which the binding signal is 8870 fluorescence intensity (a.u.). As to “CACACACAAACTTTCAACTTTTCCGTCACGTCGTTCCAATCGGAGTCACCTAGTGCAG”, the binding signal is 12900 fluorescence intensity (a.u.).

Regarding “TGTCCTTGAAACCGCTTTACTTCTTTATCTGACTTTTGAACGGAGTCACCTAGTGCAG”, the binding signal was 8180 fluorescence intensity (a.u.). On to “AATTAGTTTGATGTTATAAGCGTCATGTTTTTTCCATAAACGGAGTCACCTAGTGCAG”, for which the binding signal was 9620 fluorescence intensity (a.u.). As to “ATCGATCGCCCAACCGACCAACCAGCTAGTCCATGTTTCTCGGAGTCACCTAGTGCAG”, the binding signal is 10700 fluorescence intensity (a.u.). For “ATCATCGTTGCCTGGTGCTGTATAGGTTTGGTGAGCCCATCGGAGTCACCTAGTGCAG”, the binding signal was 8040 fluorescence intensity (a.u.).

On to “GGAATTTTGGCCCCTTAAATTGTTGTATAATTGAAGCTTTCGGAGTCACCTAGTGCAG”, for which the binding signal was 8130 fluorescence intensity (a.u.).

“CACCTACCCCATTTTCTTCTACGCCTACCACACTACTACCCGGAGTCACCTAGTGCAG”: the binding signal is 10100 fluorescence intensity (a.u.).

Source of the values: paper PMC7819943, “Rice protein-binding microarrays: a tool to detect cis-acting elements near promoter regions in rice”.
